Data reported in paper PMC12579238.
No constants are given. Whether binding was seen depends on the method and setting. In cells and extracts the contact can be indirect. Here binding means that the protein was enriched with, or labelled near, the bait; the list need not be complete.

T1: CLN7 (human (endogenous in SH-SY5Y)) (UniProt Q8NHS3)
T1 sequence: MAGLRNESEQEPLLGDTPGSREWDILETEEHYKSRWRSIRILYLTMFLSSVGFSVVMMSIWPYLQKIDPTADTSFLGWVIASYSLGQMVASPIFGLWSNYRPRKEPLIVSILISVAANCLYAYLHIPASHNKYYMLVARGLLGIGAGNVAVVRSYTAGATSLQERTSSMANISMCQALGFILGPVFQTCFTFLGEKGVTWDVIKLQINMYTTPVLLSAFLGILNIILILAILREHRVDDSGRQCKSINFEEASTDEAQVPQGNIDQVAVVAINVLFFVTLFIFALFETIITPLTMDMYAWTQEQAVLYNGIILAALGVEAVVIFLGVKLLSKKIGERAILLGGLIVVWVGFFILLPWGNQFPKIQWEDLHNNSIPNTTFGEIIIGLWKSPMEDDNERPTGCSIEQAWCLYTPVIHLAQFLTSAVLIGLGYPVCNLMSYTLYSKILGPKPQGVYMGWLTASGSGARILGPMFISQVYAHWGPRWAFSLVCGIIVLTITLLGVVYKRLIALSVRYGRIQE


Target: T1, CLN7 (human (endogenous in SH-SY5Y))
Experiment: affinity purification with mass spectrometry; endogenous CLN7 immunoprecipitated from 2.5 mg SH-SY5Y lysate with a polyclonal anti-CLN7 antibody raised against L9 (351-421aa, Proteintech) on G-sepharose beads; IgG as non-specific binding control; 4 independent replicates; cells under steady state culture conditions

Binder | binding
NUFIP2 (protein, UniProt Q7Z417 1-695) MEEKPGQPQPQHHHSHHHPHHHPQQQQQQPHHHHHYYFYNHSHNHHHHHHHQQPHQYLQHGAEGSPKAQPKPLKHEQKHTLQQHQETPKKKTGYGELNGNAGEREISLKNLSSDEATNPISRVLNGNQQVVDTSLKQTVKANTFGKAGIKTKNFIQKNSMDKKNGKSYENKSGENQSVDKSDTIPIPNGVVTNNSGYITNGYMGKGADNDGSGSESGYTTPKKRKARRNSAKGCENLNIVQDKIMQQETSVPTLKQGLETFKPDYSEQKGNRVDGSKPIWKYETGPGGTSRGKPAVGDMLRKSSDSKPGVSSKKFDDRPKGKHASAVASKEDSWTLFKPPPVFPVDNSSAKIVPKISYASKVKENLNKTIQNSSVSPTSSSSSSSSTGETQTQSSSRLSQVPMSALKSVTSANFSNGPVLAGTDGNVYPPGGQPLLTTAANTLTPISSGTDSVLQDMSLTSAAVEQIKTSLFIYPSNMQTMLLSTAQVDLPSQTDQQNLGDIFQNQWGLSFINEPSAGPETVTGKSSEHKVMEVTFQGEYPATLVSQGAEIIPSGTEHPVFPKAYELEKRTSPQVLGSILKSGTTSESGALSLEPSHIGDLQKADTSSQGALVFLSKDYEIESQNPLASPTNTLLGSAKEQRYQRGLERNDSWGSFDLRAAIVYHTKEMESIWNLQKQDPKRIITYNEAMDSPDQ | binds
PDS5A (protein, UniProt Q29RF7 1-1337) MDFTAQPKPATALCGVVSADGKIAYPPGVKEITDKITTDEMIKRLKMVVKTFMDMDQDSEDEKQQYLPLALHLASEFFLRNPNKDVRLLVACCLADIFRIYAPEAPYTSHDKLKDIFLFITRQLKGLEDTKSPQFNRYFYLLENLAWVKSYNICFELEDCNEIFIQLFRTLFSVINNSHNKKVQMHMLDLMSSIIMEGDGVTQELLDSILINLIPAHKNLNKQSFDLAKVLLKRTVQTIEACIANFFNQVLVLGRSSVSDLSEHVFDLIQELFAIDPHLLLSVMPQLEFKLKSNDGEERLAVVRLLAKLFGSKDSDLATQNRPLWQCFLGRFNDIHVPVRLESVKFASHCLMNHPDLAKDLTEYLKVRSHDPEEAIRHDVIVTIITAAKRDLALVNDQLLGFVRERTLDKRWRVRKEAMMGLAQLYKKYCLHGEAGKEAAEKVSWIKDKLLHIYYQNSIDDKLLVEKIFAQYLVPHNLETEERMKCLYYLYASLDPNAVKALNEMWKCQNMLRSHVRELLDLHKQPTSEANCSAMFGKLMTIAKNLPDPGKAQDFVKKFNQVLGDDEKLRSQLELLISPTCSCKQADICVREIARKLANPKQPTNPFLEMVKFLLERIAPVHIDSEAISALVKLMNKSIEGTADDEEEGVSPDTAIRSGLELLKVLSFTHPTSFHSAETYESLLQCLRMEDDKVAEAAIQIFRNTGHKIETDLPQIRSTLIPILHQKAKRGTPHQAKQAVHCIHAIFTNKEVQLAQIFEPLSRSLNADVPEQLITPLVSLGHISMLAPDQFASPMKSVVANFIVKDLLMNDRSTGEKNGKLWSPDEEVSPEVLAKVQAIKLLVRWLLGMKNNQSKSANSTLRLLSAMLVSEGDLTEQKRISKSDMSRLRLAAGSAIMKLAQEPCYHEIITPEQFQLCALVINDECYQVRQIFAQKLHKALVKLLLPLEYMAIFALCAKDPVKERRAHARQCLLKNISIRREYIKQNPMATEKLLSLLPEYVVPYMIHLLAHDPDFTRSQDVDQLRDIKECLWFMLEVLMTKNENNSHAFMKKMAENIKLTRDAQSPDESKTNEKLYTVCDVALCVINSKSALCNADSPKDPVLPMKFFTQPEKDFCNDKSYISEETRVLLLTGKPKPAGVLGAVNKPLSATGRKPYVRSTGTETGSNINVNSELNPSTGNRSREQSSEAAETGVSENEENPVRIISVTPVKNIDPVKNKEINSDQATQGNISSDRGKKRTVTAAGAENIQQKTDEKVDESGPPAPSKPRRGRRPKSESQGNATKNDDLNKPINKGRKRAAVGQESPGGLEAGNAKAPKLQDLAKKAAPAERQIDLQR | binds
PRKRA (protein, UniProt O75569 1-313) MSQSRHRAEAPPLEREDSGTFSLGKMITAKPGKTPIQVLHEYGMKTKNIPVYECERSDVQIHVPTFTFRVTVGDITCTGEGTSKKLAKHRAAEAAINILKANASICFAVPDPLMPDPSKQPKNQLNPIGSLQELAIHHGWRLPEYTLSQEGGPAHKREYTTICRLESFMETGKGASKKQAKRNAAEKFLAKFSNISPENHISLTNVVGHSLGCTWHSLRNSPGEKINLLKRSLLSIPNTDYIQLLSEIAKEQGFNITYLDIDELSANGQYQCLAELSTSPITVCHGSGISCGNAQSDAAHNALQYLKIIAERK | binds
PRPF6 (protein, UniProt O94906 1-941) MNKKKKPFLGMPAPLGYVPGLGRGATGFTTRSDIGPARDANDPVDDRHAPPGKRTVGDQMKKNQAADDDDEDLNDTNYDEFNGYAGSLFSSGPYEKDDEEADAIYAALDKRMDERRKERREQREKEEIEKYRMERPKIQQQFSDLKRKLAEVTEEEWLSIPEVGDARNKRQRNPRYEKLTPVPDSFFAKHLQTGENHTSVDPRQTQFGGLNTPYPGGLNTPYPGGMTPGLMTPGTGELDMRKIGQARNTLMDMRLSQVSDSVSGQTVVDPKGYLTDLNSMIPTHGGDINDIKKARLLLKSVRETNPHHPPAWIASARLEEVTGKLQVARNLIMKGTEMCPKSEDVWLEAARLQPGDTAKAVVAQAVRHLPQSVRIYIRAAELETDIRAKKRVLRKALEHVPNSVRLWKAAVELEEPEDARIMLSRAVECCPTSVELWLALARLETYENARKVLNKARENIPTDRHIWITAAKLEEANGNTQMVEKIIDRAITSLRANGVEINREQWIQDAEECDRAGSVATCQAVMRAVIGIGIEEEDRKHTWMEDADSCVAHNALECARAIYAYALQVFPSKKSVWLRAAYFEKNHGTRESLEALLQRAVAHCPKAEVLWLMGAKSKWLAGDVPAARSILALAFQANPNSEEIWLAAVKLESENDEYERARRLLAKARSSAPTARVFMKSVKLEWVQDNIRAAQDLCEEALRHYEDFPKLWMMKGQIEEQKEMMEKAREAYNQGLKKCPHSTPLWLLLSRLEEKIGQLTRARAILEKSRLKNPKNPGLWLESVRLEYRAGLKNIANTLMAKALQECPNSGILWSEAIFLEARPQRRTKSVDALKKCEHDPHVLLAVAKLFWSQRKITKAREWFHRTVKIDSDLGDAWAFFYKFELQHGTEEQQEEVRKRCESAEPRHGELWCAVSKDIANWQKKIGDILRLVAGRIKNTF | binds
ATXN2L (protein, UniProt Q8WWM7 1-1075) MLKPQPLQQPSQPQQPPPTQQAVARRPPGGTSPPNGGLPGPLATSAAPPGPPAAASPCLGPVAAAGSGLRRGAEGILAPQPPPPQQHQERPGAAAIGSARGQSTGKGPPQSPVFEGVYNNSRMLHFLTAVVGSTCDVKVKNGTTYEGIFKTLSSKFELAVDAVHRKASEPAGGPRREDIVDTMVFKPSDVMLVHFRNVDFNYATKDKFTDSAIAMNSKVNGEHKEKVLQRWEGGDSNSDDYDLESDMSNGWDPNEMFKFNEENYGVKTTYDSSLSSYTVPLEKDNSEEFRQRELRAAQLAREIESSPQYRLRIAMENDDGRTEEEKHSAVQRQGSGRESPSLASREGKYIPLPQRVREGPRGGVRCSSSRGGRPGLSSLPPRGPHHLDNSSPGPGSEARGINGGPSRMSPKAQRPLRGAKTLSSPSNRPSGETSVPPPPAVGRMYPPRSPKSAAPAPISASCPEPPIGSAVPTSSASIPVTSSVSDPGVGSISPASPKISLAPTDVKELSTKEPGRTLEPQELARIAGKVPGLQNEQKRFQLEELRKFGAQFKLQPSSSPENSLDPFPPRILKEEPKGKEKEVDGLLTSEPMGSPVSSKTESVSDKEDKPPLAPSGGTEGPEQPPPPCPSQTGSPPVGLIKGEDKDEGPVAEQVKKSTLNPNAKEFNPTKPLLSVNKSTSTPTSPGPRTHSTPSIPVLTAGQSGLYSPQYISYIPQIHMGPAVQAPQMYPYPVSNSVPGQQGKYRGAKGSLPPQRSDQHQPASAPPMMQAAAAAGPPLVAATPYSSYIPYNPQQFPGQPAMMQPMAHYPSQPVFAPMLQSNPRMLTSGSHPQAIVSSSTPQYPSAEQPTPQALYATVHQSYPHHATQLHAHQPQPATTPTGSQPQSQHAAPSPVQHQAGQAPHLGSGQPQQNLYHPGALTGTPPSLPPGPSAQSPQSSFPQPAAVYAIHHQQLPHGFTNMAHVTQAHVQTGITAAPPPHPGAPHPPQVMLLHPPQSHGGPPQGAVPQSGVPALSASTPSPYPYIGHPQGEQPGQAPGFPGGADDRIREFSLAGGIWHGRAEGLQVGQDARVLGGE | binds
RAE1 (protein, UniProt P78406 1-368) MSLFGTTSGFGTSGTSMFGSATTDNHNPMKDIEVTSSPDDSIGCLSFSPPTLPGNFLIAGSWANDVRCWEVQDSGQTIPKAQQMHTGPVLDVCWSDDGSKVFTASCDKTAKMWDLSSNQAIQIAQHDAPVKTIHWIKAPNYSCVMTGSWDKTLKFWDTRSSNPMMVLQLPERCYCADVIYPMAVVATAERGLIVYQLENQPSEFRRIESPLKHQHRCVAIFKDKQNKPTGFALGSIEGRVAIHYINPPNPAKDNFTFKCHRSNGTNTSAPQDIYAVNGIAFHPVHGTLATVGSDGRFSFWDKDARTKLKTSEQLDQPISACCFNHNGNIFAYASSYDWSKGHEFYNPQKKNYIFLRNAAEELKPRNKK | binds
